Our source for the binding result and binding signal values is article PMC4476650.

Construct, isoform or probe ends are uncertain for at least one entry. Where cells or extracts were used, other partners may take part. For part of these data: At least one verdict rests on a figure or table, not on a statement of the authors. Tags and fusion partners may be left off the protein sequences shown. For part of these data: Whether high values mean tight binding is not given here for every scale.

Data set [1] concerns the target T1, serum response factor (SRF) (rat (neonatal rat ventricular myocytes)) (UniProt D3ZHH8).
T1 sequence (looked up, limits assumed): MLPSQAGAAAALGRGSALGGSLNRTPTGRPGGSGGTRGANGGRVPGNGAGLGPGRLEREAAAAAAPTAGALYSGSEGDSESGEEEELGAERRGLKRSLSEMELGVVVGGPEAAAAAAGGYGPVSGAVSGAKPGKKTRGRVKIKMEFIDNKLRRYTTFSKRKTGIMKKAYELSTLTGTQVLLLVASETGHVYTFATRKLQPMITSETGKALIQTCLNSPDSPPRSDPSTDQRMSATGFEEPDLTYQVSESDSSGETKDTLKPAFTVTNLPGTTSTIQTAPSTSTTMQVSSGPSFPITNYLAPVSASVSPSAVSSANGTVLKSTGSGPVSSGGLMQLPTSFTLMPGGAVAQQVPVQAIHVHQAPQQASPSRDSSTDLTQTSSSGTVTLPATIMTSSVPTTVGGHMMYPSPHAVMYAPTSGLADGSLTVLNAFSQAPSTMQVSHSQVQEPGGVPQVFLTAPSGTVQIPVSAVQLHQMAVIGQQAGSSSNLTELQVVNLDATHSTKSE
In words: competition with a labelled probe. Particulars: unlabelled 100x probe as competitor; 10 ug nuclear extract, room temperature 20 min, 5% polyacrylamide gel in 0.5x TBE; binding buffer, salt and pH not given; protein in an extract; label: 32P (alpha-32P-dCTP).

The target in data set [2] is T1, serum response factor (SRF) (rat (neonatal rat ventricular myocytes)). The experiment in a line: EMSA supershift. Particulars: SRF antibody 4 ug, NRVM nuclear extract; 10 ug nuclear extract, room temperature 20 min, 5% polyacrylamide gel in 0.5x TBE; binding buffer, salt and pH not given; protein in an extract; label: 32P (alpha-32P-dCTP).
For data set [3] the target is unchanged. In words: EMSA. Particulars: Phactr1 adenovirus 1 MOI, NRVM nuclear extract vs LacZ; 10 ug nuclear extract, room temperature 20 min, 5% polyacrylamide gel in 0.5x TBE; binding buffer, salt and pH not given; protein in an extract; label: 32P (alpha-32P-dCTP).

As to “ACAGGATGTCCATATTAGGACATCT (double strand) [rat c-fos SRF probe]”, the binding result in data set [1] and in data set [2] was “binds” in each case. For the same sequence, the binding signal in data set [3] was determined as 1.7 fold vs LacZ.
